From publication PMC10363768 come the findings set out here.

No constants are given. Whether binding was seen depends on the method and setting. A result given as binding can be weak or reduced; the word gives no strength. Where a sequence is shown, tags or fusion partners need not be part of it.

This assay addresses 8 × His-OsUbc13-GFP (rice) (UniProt Q8W0I1). Put plainly: pull-down; cell-free expressed and purified fusion proteins mixed (100 μL each), 4 °C for 4 h, then His-tag magnetic beads 1 h at 4 °C, six washes; immunoblot with anti-His and anti-Flag; both purified. Background: In western blotting, separated proteins are transferred to a membrane and probed.

B1: 3 × Flag-OsSnRK1a-GFP (enzyme, UniProt Q852Q2 1-505)
chain: MEGAGRDGNPLGGYRIGKTLGIGSFGKVKIAEHILTGHKVAIKILNRRKIKSMEMEEKVKREIKILRLFMHPHIIRLYEVIDTPADIYVVMEYVKSGELFDYIVEKGRLQEEEARRFFQQIISGVEYCHRNMVVHRDLKPENLLLDSKCNVKIADFGLSNVMRDGHFLKTSCGSPNYAAPEVISGKLYAGPEVDVWSCGVILYALLCGTLPFDDENIPNLFKKIKGGIYTLPSHLSPLARDLIPRMLVVDPMKRITIREIREHQWFTVGLPRYLAVPPPDTAQQVKKLDDETLNDVINMGFDKNQLIESLHKRLQNEATVAYYLLLDNRLRTTSGYLGAEFHESMESSLAQVTPAETPNSATDHRQHGHMESPGFGLRHHFAADRKWALGLQSRAHPREIITEVLKALQELNVCWKKIGHYNMKCRWSPSFPSHESMMHNNHGFGAESAIIETDDSEKSTHTVKFEIQLYKTRDEKYLLDLQRVSGPQLLFLDLCSAFLTQLRVL
As to B1, the binding entry is given as “binds”.
